Reference: PubChem BioAssay AID1347423 (Functional Genomics Laboratory (NCATS/FGL), 2020)
In all, about 52,000 sequences went through this assay and about 210 (0.4%) were called active.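 How the source made its calls: active means gene whose silencing raises cell survival under the drug, median off-target-corrected z-score across its silencing RNAs 2 or more; inactive means the rest.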 The list shows a part of the results.

Experiment: Resistance to Poly (ADP-Ribose) Polymerase inhibitor: Gene Identification via Genome-wide siRNA Screen
Conditions: mouse BRCA2 R2336H ES cells, olaparib, CellTiter-Glo viability; stronger effect = higher value
Procedure, shortened: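 Mouse BRCA2 R2336H ES cells were reverse-transfected with siRNA (20 nM final), treated at 48 h with 500 nM olaparib, and read by CellTiter-Glo after 72 h. Scores: MAD-based z per siRNA, median per gene, seed off-target correction.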
With GGGAUAUUCAAAAUACUAGTT against Hells the z-score was inactive: -1.54. In the case of GGCAAGAUCCACAAUGAUGTT against Lgals2, the z-score is reported as inactive: 0.913. In the case of GGUGGGUCAAUGAUCCAGGTT against Fabp9, the z-score is reported as inactive: -2.63. For GCCUUCUAAGUCUGCACCATT against Hist1h2bb, the z-score was inactive: 0.35. In the case of CGUGCAUUCUUAUCACAGCTT against Hsbp1, the z-score is reported as inactive: -0.279. In the case of GGAUUCCAAAUGCUUACAATT against BC003322, the z-score is reported as inactive: -0.00548. In the case of GGACAUAUUUCCAACAUGUTT against Mobkl2b, the z-score is reported as inactive: 1.35. In the case of GCACUUUCGGUCAAGUGGATT against Pou2f3, the z-score is reported as inactive: 1.65. For GGCGGUGACAGAGCUGAAUTT against Ywhah, the z-score was inactive: 0.0286. In the case of CCAGGGACUUAGGUUUAUCTT against Thap11, the z-score is reported as inactive: -0.331. With GGAAGCAUUCAAGAACAUCTT against Rab11b the z-score was inactive: -0.365. In the case of GGGUCCUUUGAAAUUGUGGTT against Usp37, the z-score is reported as inactive: 0.449. For CGACUACCAACAGUUCAUATT against P2rxl1, the z-score was inactive: 0.959. For GGAAGAAAGGAAAAUCAGATT against Nsmaf, the z-score was inactive: -0.534. In the case of GCUGGAGUGUCAGUCAUAUTT against Reg4, the z-score is reported as inactive: -0.407. For “GGAAUGGUAGGAAUUCUUCTT against 2610311I19Rik”, the z-score was inactive: 0.682. With “CCUGUGAAGUAUAACAUCGTT against 8430419L09Rik” the z-score was inactive: 0.278. With GGUGAGUUCAUGGUUUCCUTT against Txnl4b the z-score was inactive: 0.696. For GGGAUGUUUAUUGUGUUCCTT against Tuba1, the z-score was inactive: -0.806. With GGAGAAGGAGAUGUCCAAUTT against Guca2b the z-score was inactive: -0.752. With “GGUUCCCUUUUUCAUCUAATT against 4632433K11Rik” the z-score was inactive: 4.08. With GGGAAACCUUCUGUACCAGTT against BC026744 the z-score was inactive: 1.21. For GCUGAAGUGCAAGAACAAATT against Dmd, the z-score was inactive: -0.527. In the case of GGAGUUCGAAAGUAUCUAUTT against Rcvrn, the z-score is reported as inactive: -1.53. For GGAAUCAGACACGUUCAUCTT against Prkar2a, the z-score was inactive: -0.396. In the case of GGGCUACGGACAUUUCAUUTT against BC027072, the z-score is reported as inactive: -1.84. With GCAUGAAUGUUCUGAGUUCTT against Sh3bgrl the z-score was inactive: 0.72. In the case of CGGAGUCCAACCCAUAAAUTT against Blzf1, the z-score is reported as inactive: 0.595. For GGGAAUCAGAGGCUGGUAATT against BC023814, the z-score was inactive: -0.217. In the case of GGGCUCUCAAUAUUACCUCTT against Car11, the z-score is reported as inactive: -0.743. For CGCUAUGAGGCAGCUAAUUTT against Psma6, the z-score was inactive: -3.64. In the case of GCGAUGACCAAAAAUAUUGTT against Tmc1, the z-score is reported as inactive: 2.23. For GGAAAGGACAUUGUUGUUCTT against Psma7, the z-score was inactive: 0.172. For GGCAAUCAGCUUCACUGUGTT against Klk7, the z-score was inactive: -0.607. For GCUGUACGUUUGCACAUUCTT against Rc3h1, the z-score was inactive: -2.53. With GCGAUUCAUAACACCAUUGTT against Pole3 the z-score was inactive: 0.121. In the case of GGACUUGAUUAUCUACACUTT against Stk24, the z-score is reported as inactive: 0.803. For “GGGCAAACCGGAAAAACAGTT against 2600016J21Rik”, the z-score was inactive: 1.94. In the case of UACUCGUGGUGUUUGCAAGTT against Olfr1154, the z-score is reported as inactive: 0.96. In the case of “GGAGUAUGAAUGCUAUGUCTT against 9830160G03Rik”, the z-score is reported as inactive: -0.156. For GGAUGAACCCAGAAAGAUGTT against Gdf5, the z-score was inactive: 0.172. With GGAGAGUGAGAAGAUCUUGTT against Ecel1 the z-score was inactive: 2.37. For “GGAGAAGAGGAAAAUGCGUTT against E130201N16Rik”, the z-score was inactive: 0.324. In the case of GGACUCUCAACUUCCAAUGTT against Spire2, the z-score is reported as inactive: 0.184. With “GCUCGAUGGAUUGUAAUCUTT against 2610021K21Rik” the z-score was inactive: -1.1. With GGUUAAAAUGUCAUCCUUUTT against Trerf1 the z-score was inactive: 0.976. For “GGAUGCUGUCACAAAUGUGTT against 6720467C03Rik”, the z-score was inactive: -0.397. For CCUCAUCUAUGCAUGUUGUTT against Olfr1394, the z-score was inactive: -0.577. In the case of GGGAUAUGACAGAACCAUATT against Olfr1390, the z-score is reported as inactive: 0.207. For CCUUCCUAAUGAUUGCCAATT against Grm7, the z-score was inactive: 0.35. In the case of GGCCUACAAUACCUCCAUUTT against Grid2ip, the z-score is reported as inactive: -0.597. With GGAACUGCUCGUAGGAAGATT against Btf3 the z-score was inactive: -2.67. With “CCACCAAAAACAAAGGACCTT against 1700003E24Rik” the z-score was inactive: 1.82. With GGACUCCUAUCCAUCUAUGTT against Panx3 the z-score was inactive: 0.511. For “GGAGAUGCAAAGUCUGUCUTT against 2310015J09Rik”, the z-score was inactive: 1.45. In the case of “GGGACCACUGUGUAUUGACTT against 5730592L21Rik”, the z-score is reported as inactive: 0.734. With GGACAUUUCCAAUAACAUUTT against Mki67ip the z-score was inactive: -2.22. For “GGACACCUAUCUUGUCCGGTT against 2810410C14Rik”, the z-score was inactive: 1.02. With “GGACAUUUUUAUUAGUGGATT against 0610037H22Rik” the z-score was inactive: 1.01. In the case of GGUGGUGAUAAUUGUUUUUTT against Olfr1497, the z-score is reported as inactive: 0.218. For GCAUAUGCUUUUACAACACTT against Suhw3, the z-score was inactive: 0.929. For GGCCUAUAAGUUGGACUCCTT against Sstr5, the z-score was inactive: -1.27. In the case of GGCAGCUCUGACUUUAUAATT against Klhdc3, the z-score is reported as inactive: -2.93. With CCCUAAGGUGGCAGAAAUCTT against Atp1a2 the z-score was inactive: -0.694. With GGCCUUUCAAUGUUACAGATT against Mpo the z-score was inactive: -1.03. With GCUGAAAGGAAUGUGCUCATT against Hspa8 the z-score was inactive: -2.95. In the case of GGCUGACAGAAGGAUGCUCTT against Rps27, the z-score is reported as inactive: 0.343. In the case of GCUGUCAAGGAUCAUCCCATT against AU040576, the z-score is reported as inactive: 3.89. With CCCUACUGAGAUCUUAGAUTT against Pole the z-score was inactive: -1.7. With “GCUGCACGUGAUCAUGGAUTT against 2610203E10Rik” the z-score was inactive: 2.15. For GGCUCAAAACAGCAAGAUCTT against Angptl4, the z-score was inactive: -0.361. With “GGGCAUAGACAGUACCAGUTT against 4922502D21Rik” the z-score was inactive: 0.272. In the case of GCUUUUCACAUGAUGUGUUTT against Klrb1a, the z-score is reported as inactive: 0.553. In the case of GGUCGCUACAAGAUGACUUTT against Hapln4, the z-score is reported as inactive: 0.151. For “GGCUUCAAGGGAAAAGCUGTT against B930037P14Rik”, the z-score was inactive: 0.168. With “GCAAGACUCAGAGAGGUGGTT against A730020M07Rik” the z-score was inactive: -0.495. In the case of “GCAGACAACGCACUGAUGATT against C630007C17Rik”, the z-score is reported as inactive: -0.367. For GGAUGCUUACUUACCUCAUTT against Tas2r107, the z-score was inactive: -2.06. In the case of GCUAAGUGACCUCUUUAACTT against D15Wsu75e, the z-score is reported as inactive: -0.203. With GCUCAACACUCGACAUUGUTT against Rrm1 the z-score was inactive: -2.32. For GGCUGUUGAACUUAAUCCCTT against Tomm70a, the z-score was inactive: -0.723. With CGGCCUAUCUCUUGGUUUATT against Usp18 the z-score was active: 2.69. For “CGGAUAAUCAACAUUUCCUTT against A430081P20Rik”, the z-score was inactive: 0.487. With GGAACAACUCCUGUUCCCATT against Obscn the z-score was inactive: 0.993. With GCCAUUGUACCAUGAAGAGTT against Ttc15 the z-score was inactive: -1.88. In the case of “GGUGCUAUGGAAAAUCAAGTT against B930007L02Rik”, the z-score is reported as inactive: 0.168. For CGAGGCUAUGAAAUCAGCCTT against Gfi1b, the z-score was inactive: 2.21. In the case of GGAGAUCAAGAAUCUCUCUTT against Zfp179, the z-score is reported as inactive: -0.0659. In the case of CCCAUAAAACAGUCAACUATT against Ankra2, the z-score is reported as inactive: 0.585. In the case of CGCGGCAAAUGUUUUAAAUTT against Scd3, the z-score is reported as inactive: 0.478. For GCUGAGUUCAUUGCAAUGCTT against Cyp4a12, the z-score was inactive: 0.261. For GCCUGAACAUCAAGAUCCUTT against BC018465, the z-score was inactive: -0.613. With GCGACGAUUGUUAAAGCUGTT against Top1mt the z-score was inactive: 0.0562. With GGACUUACUGAAAGAUAUGTT against Satb1 the z-score was inactive: -0.69. For GGUGCAACAACUUAGUUUATT against Hspa2, the z-score was inactive: 1.07. For GCUUUACAUCUUUGAAUGGTT against Psp, the z-score was inactive: -0.207. In the case of GGUCCGAUUUCAAGCCAUGTT against Ucp3, the z-score is reported as inactive: -0.396. For GGCCUCUCUACUCCUCAACTT against Ern2, the z-score was inactive: -0.389. With GGAACAAGAAAAUCUUGACTT against Ifna9 the z-score was inactive: 0.167. For GGUGCACUGUACAUGUAACTT against Fpr-rs3, the z-score was inactive: 0.642. In the case of GCAGGUCUUUACCAGUAUUTT against Fcgr2b, the z-score is reported as inactive: -2.61. In the case of GGGACAGGUGCCAUUGACATT against Zcchc6, the z-score is reported as inactive: -0.89. With “GGAAAAGCAAAAUCUCCGCTT against A730016F12Rik” the z-score was inactive: -0.294. In the case of “GGAGAAGGUGAAACAAUUGTT against 4932431F02Rik”, the z-score is reported as inactive: -0.0482.
